# The other results are listed elsewhere or left out.
# What was measured:
# Experiment in all cases: glycan array binding signal (z-score within array); higher = stronger binding
# Conditions in all cases: glycan notation: IUPAC condensed, linker removed
# [1] = target: Neu5Ac(a2-3)Gal(b1-3)GlcNAc(b1-2)Man(a1-3)[GlcNAc(b1-4)][Neu5Ac(a2-3)Gal(b1-3)GlcNAc(b1-2)Man(a1-6)]Man(b1-4)GlcNAc(b1-4)GlcNAc
# In short: (§1)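 Negative Z-scores can be read as non-binding. The Z-score is calculated within each array and then averaged across arrays of one protein sequence at different concentrations or buffers and across linkers. Arrays, 3228 in all, were curated from the Consortium for Functional Glycomics database and kept only where the protein sequence was available.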
# [2] = target: Neu5Ac(a2-3)Gal(b1-3)GlcNAc(b1-2)Man(a1-3)[Neu5Ac(a2-3)Gal(b1-3)GlcNAc(b1-2)Man(a1-6)]Man(b1-4)GlcNAc(b1-4)GlcNAc
# In short: as §1
# [3] = target: Neu5Ac(a2-3)Gal(b1-3)GlcNAc(b1-3)Gal(b1-3)GlcNAc
# In short: as §1
# [4] = target: Neu5Ac(a2-3)Gal(b1-3)GlcNAc(b1-3)Gal(b1-4)GlcNAc
# In short: as §1
# [5] = target: Neu5Ac(a2-3)Gal(b1-3)GlcNAc(b1-3)GalNAc
# In short: as §1
# [6] = target: Neu5Ac(a2-3)Gal(b1-3)GlcNAc(b1-4)Gal(b1-4)Glc
# In short: as §1
# [7] = target: Neu5Ac(a2-3)Gal(b1-3)GlcNAc(b1-6)GalNAc
# In short: as §1
# [8] = target: Neu5Ac(a2-3)Gal(b1-3)GlcNAc6S
# In short: as §1
# [9] = target: Neu5Ac(a2-3)Gal(b1-3)[Fuc(a1-4)]GlcNAc
# In short: as §1
# [10] = target: Neu5Ac(a2-3)Gal(b1-3)[Fuc(a1-4)]GlcNAc(b1-3)Gal(b1-3)[Fuc(a1-4)]GlcNAc
# In short: as §1
# [11] = target: Neu5Ac(a2-3)Gal(b1-3)[Fuc(a1-4)]GlcNAc(b1-3)Gal(b1-4)[Fuc(a1-3)]GlcNAc
# In short: as §1
# [12] = target: Neu5Ac(a2-3)Gal(b1-3)[GlcNAc(b1-6)]GalNAc
# In short: as §1
# [13] = target: Neu5Ac(a2-3)Gal(b1-3)[Neu5Ac(a2-6)]GalNAc
# In short: as §1
# [14] = target: Neu5Ac(a2-3)Gal(b1-3)[Neu5Ac(a2-6)]GlcNAc(b1-3)[Fuc(a1-3)[Gal(b1-4)]GlcNAc(b1-6)]Gal(b1-4)Glc
# In short: as §1
# [15] = target: Neu5Ac(a2-3)Gal(b1-3)]Neu5Ac(a2-3)Gal(b1-4)]GlcNAc
# In short: as §1
# Neu5Ac(a2-3)Gal(b1-4)Glc = target: Neu5Ac(a2-3)Gal(b1-4)Glc
# In short: as §1
# [16] = target: Neu5Ac(a2-3)Gal(b1-4)GlcNAc
# In short: as §1
# [17] = target: Neu5Ac(a2-3)Gal(b1-4)GlcNAc(b1-2)Man
# In short: as §1
# [18] = target: Neu5Ac(a2-3)Gal(b1-4)GlcNAc(b1-2)Man(a1-3)[GlcNAc(b1-4)][Neu5Ac(a2-3)Gal(b1-4)GlcNAc(b1-2)Man(a1-6)]Man(b1-4)GlcNAc(b1-4)GlcNAc
# In short: as §1
# [19] = target: Neu5Ac(a2-3)Gal(b1-4)GlcNAc(b1-2)Man(a1-3)[Neu5Ac(a2-3)Gal(b1-4)GlcNAc(b1-2)Man(a1-6)]Man(b1-4)GlcNAc(b1-4)GlcNAc
# In short: as §1
# [20] = target: Neu5Ac(a2-3)Gal(b1-4)GlcNAc(b1-2)Man(a1-3)[Neu5Ac(a2-3)Gal(b1-4)GlcNAc(b1-2)Man(a1-6)]Man(b1-4)GlcNAc(b1-4)[Fuc(a1-6)]GlcNAc
# In short: as §1
# [21] = target: Neu5Ac(a2-3)Gal(b1-4)GlcNAc(b1-2)Man(a1-3)[Neu5Ac(a2-6)Gal(b1-4)GlcNAc(b1-2)Man(a1-6)]Man(b1-4)GlcNAc(b1-4)GlcNAc
# In short: as §1
# [22] = target: Neu5Ac(a2-3)Gal(b1-4)GlcNAc(b1-2)[Neu5Ac(a2-3)Gal(b1-4)GlcNAc(b1-4)]Man(a1-3)[GlcNAc(b1-4)][Neu5Ac(a2-3)Gal(b1-4)GlcNAc(b1-2)[Neu5Ac(a2-3)Gal(b1-4)GlcNAc(b1-6)]Man(a1-6)]Man(b1-4)GlcNAc(b1-4)GlcNAc
# In short: as §1
# [23] = target: Neu5Ac(a2-3)Gal(b1-4)GlcNAc(b1-2)[Neu5Ac(a2-3)Gal(b1-4)GlcNAc(b1-4)]Man(a1-3)[GlcNAc(b1-4)][Neu5Ac(a2-3)Gal(b1-4)GlcNAc(b1-4)Man(a1-6)]Man(b1-4)GlcNAc(b1-4)GlcNAc
# In short: as §1
# [24] = target: Neu5Ac(a2-3)Gal(b1-4)GlcNAc(b1-2)[Neu5Ac(a2-3)Gal(b1-4)GlcNAc(b1-6)]Man(a1-6)[Neu5Ac(a2-3)Gal(b1-4)GlcNAc(b1-2)Man(a1-3)]Man(b1-4)GlcNAc(b1-4)GlcNAc
# In short: as §1
# [25] = target: Neu5Ac(a2-3)Gal(b1-4)GlcNAc(b1-2)[Neu5Ac(a2-3)Gal(b1-4)GlcNAc(b1-6)]Man(a1-6)[Neu5Ac(a2-3)Gal(b1-4)GlcNAc(b1-2)Man(a1-3)][GlcNAc(b1-4)]Man(b1-4)GlcNAc(b1-4)GlcNAc
# In short: as §1
# [26] = target: Neu5Ac(a2-3)Gal(b1-4)GlcNAc(b1-3)Gal
# In short: as §1
# [27] = target: Neu5Ac(a2-3)Gal(b1-4)GlcNAc(b1-3)Gal(b1-3)GlcNAc
# In short: as §1
# [28] = target: Neu5Ac(a2-3)Gal(b1-4)GlcNAc(b1-3)Gal(b1-4)GlcNAc
# In short: as §1
# [29] = target: Neu5Ac(a2-3)Gal(b1-4)GlcNAc(b1-3)Gal(b1-4)GlcNAc(b1-2)Man(a1-3)[Neu5Ac(a2-3)Gal(b1-4)GlcNAc(b1-3)Gal(b1-4)GlcNAc(b1-2)Man(a1-6)]Man(b1-4)GlcNAc(b1-4)GlcNAc
# In short: as §1
# [30] = target: Neu5Ac(a2-3)Gal(b1-4)GlcNAc(b1-3)Gal(b1-4)GlcNAc(b1-3)Gal(b1-4)GlcNAc
# In short: as §1
# [31] = target: Neu5Ac(a2-3)Gal(b1-4)GlcNAc(b1-3)Gal(b1-4)GlcNAc(b1-3)Gal(b1-4)GlcNAc(b1-2)Man(a1-3)[Neu5Ac(a2-3)Gal(b1-4)GlcNAc(b1-3)Gal(b1-4)GlcNAc(b1-3)Gal(b1-4)GlcNAc(b1-2)Man(a1-6)]GalNAc
# In short: as §1
# [32] = target: Neu5Ac(a2-3)Gal(b1-4)GlcNAc(b1-3)Gal(b1-4)GlcNAc(b1-3)GalNAc
# In short: as §1
# [33] = target: Neu5Ac(a2-3)Gal(b1-4)GlcNAc(b1-3)Gal(b1-4)GlcNAc(b1-3)[Neu5Ac(a2-3)Gal(b1-4)GlcNAc(b1-3)Gal(b1-4)GlcNAc(b1-6)]GalNAc
# In short: as §1
# [34] = target: Neu5Ac(a2-3)Gal(b1-4)GlcNAc(b1-3)Gal(b1-4)GlcNAc(b1-6)[Gal(b1-3)]GalNAc
# In short: as §1
# [35] = target: Neu5Ac(a2-3)Gal(b1-4)GlcNAc(b1-3)Gal(b1-4)[Fuc(a1-3)]GlcNAc
# In short: as §1
# [36] = target: Neu5Ac(a2-3)Gal(b1-4)GlcNAc(b1-3)GalNAc
# In short: as §1
# [37] = target: Neu5Ac(a2-3)Gal(b1-4)GlcNAc(b1-3)[Neu5Ac(a2-3)Gal(b1-4)GlcNAc(b1-6)]GalNAc
# In short: as §1
binder,measurement,setting,value
PX14343E-bfa-545-24-545 (Bacteroides fragilis) (protein) LDRYPQEELSDGSFWKTPDDANKVVSDLYGYLSTWDQDNDINSDNATMGIKWAAGNVSKGIYDPADQGWSGDYANVRQCNLILSKIDEIPDYPEADKTKALGQVYFFRAYIYFNLIRSFGDVPYIDKPLDLKDMEGITRMPRAEVYEKIMADFDKAIAALPTEWGASDYGRVTKGAAMAMKARAALYYGNWDTAATEAKNVMDLGLYELYDKDNTGKYAELFWEKADGCDEFILVTQFNYPDKTHYLMGWECFPTKGWGGMNPTQSLVDAFEDSEGAPISKSKIYDPTDPFKNRDPRLEVDILHDGEEMYGVTIKVAPLASSGSTGINQHNDATETGYYGQKWLDPSLDPLSDGWNMGKDWVHIRYAEVLLTYAEAKNELQGLDPEAFDAVNQVRRRVGMPELQNTDPSKPTYCATQDDLRQRIRNEWRVEFCLEGGKRMWDIRRWGIAKDVLNAPFEGLKYKIVDNPNDPDKKVDGGKMCILYQGDPIILSGSRYSDNNYLFPVPQSEIDLNPALTQNPGY,glycan array binding signal (z-score),[1],-0.52
same,glycan array binding signal (z-score),[2],0.72
same,glycan array binding signal (z-score),[3],-1.12
same,glycan array binding signal (z-score),[4],-0.932
same,glycan array binding signal (z-score),[5],-0.854
same,glycan array binding signal (z-score),[6],-0.36
same,glycan array binding signal (z-score),[7],0.298
same,glycan array binding signal (z-score),[8],-0.434
same,glycan array binding signal (z-score),[9],-0.052
same,glycan array binding signal (z-score),[10],0.496
same,glycan array binding signal (z-score),[11],1.46
same,glycan array binding signal (z-score),[12],-0.721
same,glycan array binding signal (z-score),[13],0.105
same,glycan array binding signal (z-score),[14],0.395
same,glycan array binding signal (z-score),[15],-1.08
same,glycan array binding signal (z-score),Neu5Ac(a2-3)Gal(b1-4)Glc,-0.868
same,glycan array binding signal (z-score),[16],-0.18
same,glycan array binding signal (z-score),[17],-0.048
same,glycan array binding signal (z-score),[18],0.058
same,glycan array binding signal (z-score),[19],-0.397
same,glycan array binding signal (z-score),[20],-0.571
same,glycan array binding signal (z-score),[21],-0.704
same,glycan array binding signal (z-score),[22],-0.336
same,glycan array binding signal (z-score),[23],0.264
same,glycan array binding signal (z-score),[24],0.106
same,glycan array binding signal (z-score),[25],-0.794
same,glycan array binding signal (z-score),[26],0.173
same,glycan array binding signal (z-score),[27],0.111
same,glycan array binding signal (z-score),[28],-1.24
same,glycan array binding signal (z-score),[29],-0.2
same,glycan array binding signal (z-score),[30],-0.527
same,glycan array binding signal (z-score),[31],1.75
same,glycan array binding signal (z-score),[32],-0.04
same,glycan array binding signal (z-score),[33],-0.264
same,glycan array binding signal (z-score),[34],-0.414
same,glycan array binding signal (z-score),[35],-0.099
same,glycan array binding signal (z-score),[36],-0.056
same,glycan array binding signal (z-score),[37],-0.912

# An excerpt of these results, with bars between the fields.
binder | measurement | setting | value
PX14343E-bfa-545-24-545 (Bacteroides fragilis) (protein) LDRYPQEELSDGSFWKTPDDANKVVSDLYGYLSTWDQDNDINSDNATMGIKWAAGNVSKGIYDPADQGWSGDYANVRQCNLILSKIDEIPDYPEADKTKALGQVYFFRAYIYFNLIRSFGDVPYIDKPLDLKDMEGITRMPRAEVYEKIMADFDKAIAALPTEWGASDYGRVTKGAAMAMKARAALYYGNWDTAATEAKNVMDLGLYELYDKDNTGKYAELFWEKADGCDEFILVTQFNYPDKTHYLMGWECFPTKGWGGMNPTQSLVDAFEDSEGAPISKSKIYDPTDPFKNRDPRLEVDILHDGEEMYGVTIKVAPLASSGSTGINQHNDATETGYYGQKWLDPSLDPLSDGWNMGKDWVHIRYAEVLLTYAEAKNELQGLDPEAFDAVNQVRRRVGMPELQNTDPSKPTYCATQDDLRQRIRNEWRVEFCLEGGKRMWDIRRWGIAKDVLNAPFEGLKYKIVDNPNDPDKKVDGGKMCILYQGDPIILSGSRYSDNNYLFPVPQSEIDLNPALTQNPGY | glycan array binding signal (z-score) | [14] | 0.395
same | glycan array binding signal (z-score) | [15] | -1.08

# From the supplement of paper PMC8728848
